Measured values reported in PMC4618059.
No constants are given. Whether binding was seen depends on the method and setting. In cells and extracts the contact can be indirect. Here binding means that the protein was enriched with, or labelled near, the bait; the list need not be complete. Values belong to the binder of their own block, whether it stands above or below them.

Columns and labels:
[1] = biological target: T1, MAS C-terminal tail (Ct) peptide, residues 301 to 325 of human MAS receptor, N-terminal biotin, C316S (human); assay: affinity purification with mass spectrometry; biotinylated MAS Ct peptide immobilised on NeutrAvidin agarose resin; human cardiac tissue lysate (~600 μg), overnight at 4°C; washes with D-PBS; elution with 2% SDS; LC-MS of whole gel lanes; resin alone as control; only the target purified
T1 sequence (peptide, biotin on the N-terminus): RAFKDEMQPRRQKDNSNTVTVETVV

[2] = biological target: T1, MAS C-terminal tail (Ct) peptide, residues 301 to 325 of human MAS receptor, N-terminal biotin, C316S (human); assay: affinity purification with mass spectrometry; biotinylated MAS Ct peptide immobilised on NeutrAvidin agarose resin; HL-1 cell lysate (~6 mg), overnight at 4°C; washes with D-PBS; elution with 2% SDS; LC-MS of whole gel lanes; resin alone as control; only the target purified
[3] = biological target: T1, MAS C-terminal tail (Ct) peptide, residues 301 to 325 of human MAS receptor, N-terminal biotin, C316S (human); assay: affinity purification with mass spectrometry; biotinylated MAS Ct peptide immobilised on NeutrAvidin agarose resin; HEK293 cell lysate (~4 mg), overnight at 4°C; washes with D-PBS; elution with 2% SDS; LC-MS of whole gel lanes; resin alone as control; only the target purified

B1: ACOT9 (protein, UniProt Q9Y305 22-439)
chain: LTQGPQNPKKQGIFHIHEVRDKLREIVGASTNWRDHVKAMEERKLLHSFLAKSQDGLPPRRMKDSYIEVLLPLGSEPELREKYLTVQNTVRFGRILEDLDSLGVLICYMHNKIHSAKMSPLSIVTALVDKIDMCKKSLSPEQDIKFSGHVSWVGKTSMEVKMQMFQLHGDEFCPVLDATFVMVARDSENKGPAFVNPLIPESPEEEELFRQGELNKGRRIAFSSTSLLKMAPSAEERTTIHEMFLSTLDPKTISFRSRVLPSNAVWMENSKLKSLEICHPQERNIFNRIFGGFLMRKAYELAWATACSFGGSRPFVVAVDDIMFQKPVEVGSLLFLSSQVCFTQNNYIQVRVHSEVASLQEKQHTTTNVFHFTFMSEKEVPLVFPKTYGESMLYLDGQRHFNSMSGPATLRKDYLVEP
binding [1]: binds

B3: NNTM (protein, UniProt Q13423 44-1086)
chain: CKAPVKPGIPYKQLTVGVPKEIFQNEKRVALSPAGVQNLVKQGFNVVVESGAGEASKFSDDHYRVAGAQIQGAKEVLASDLVVKVRAPMVNPTLGVHEADLLKTSGTLISFIYPAQNPELLNKLSQRKTTVLAMDQVPRVTIAQGYDALSSMANIAGYKAVVLAANHFGRFFTGQITAAGKVPPAKILIVGGGVAGLASAGAAKSMGAIVRGFDTRAAALEQFKSLGAEPLEVDLKESGEGQGGYAKEMSKEFIEAEMKLFAQQCKEVDILISTALIPGKKAPVLFNKEMIESMKEGSVVVDLAAEAGGNFETTKPGELYIHKGITHIGYTDLPSRMATQASTLYSNNITKLLKAISPDKDNFYFDVKDDFDFGTMGHVIRGTVVMKDGKVIFPAPTPKNIPQGAPVKQKTVAELEAEKAATITPFRKTMSTASAYTAGLTGILGLGIAAPNLAFSQMVTTFGLAGIVGYHTVWGVTPALHSPLMSVTNAISGLTAVGGLALMGGHLYPSTTSQGLAALAAFISSVNIAGGFLVTQRMLDMFKRPTDPPEYNYLYLLPAGTFVGGYLAALYSGYNIEQIMYLGSGLCCVGALAGLSTQGTARLGNALGMIGVAGGLAATLGVLKPGPELLAQMSGAMALGGTIGLTIAKRIQISDLPQLVAAFHSLVGLAAVLTCIAEYIIEYPHFATDAAANLTKIVAYLGTYIGGVTFSGSLIAYGKLQGLLKSAPLLLPGRHLLNAGLLAASVGGIIPFMVDPSFTTGITCLGSVSALSAVMGVTLTAAIGGADMPVVITVLNSYSGWALCAEGFLLNNNLLTIVGALIGSSGAILSYIMCVAMNRSLANVILGGYGTTSTAGGKPMEISGTHTEINLDNAIDMIREANSIIITPGYGLCAAKAQYPIADLVKMLTEQGKKVRFGIHPVAGRMPGQLNVLLAEAGVPYDIVLEMDEINHDFPDTDLVLVIGANDTVNSAAQEDPNSIIAGMPVLEVWKSKQVIVMKRSLGVGYAAVDNPIFYKPNTAMLLGDAKKTCDALQAKVRESYQK
binding [1]: binds

B4: PRDX1 (protein, UniProt Q06830 1-199)
chain: MSSGNAKIGHPAPNFKATAVMPDGQFKDISLSDYKGKYVVFFFYPLDFTFVCPTEIIAFSDRAEEFKKLNCQVIGASVDSHFCHLAWVNTPKKQGGLGPMNIPLVSDPKRTIAQDYGVLKADEGISFRGLFIIDDKGILRQITVNDLPVGRSVDETLRLVQAFQFTDKHGEVCPAGWKPGSDTIKPDVQKSKEYFSKQK
binding [1]: binds

Further lines, results first:

binding [2]: binds
B2: SNTA1 (mouse) (protein, UniProt Q61234 1-503)
chain: MASGRRAPRTGLLELRCGAGSGAGGERWQRVLLSLAEDALTVSPADGEPGPEPEPAQLNGAAEPGAAPPQLPEALLLQRRRVTVRKADAGGLGISIKGGRENKMPILISKIFKGLAADQTEALFVGDAILSVNGEDLSSATHDEAVQALKKTGKEVVLEVKYMKEVSPYFKNSAGGTSVGWDSPPASPLQRQPSSPGPQPRNLSEAKHVSLKMAYVSRRCTPTDPEPRYLEICAADGQDAVFLRAKDEASARSWAGAIQAQIGTFIPWVKDELQALLTATGTAGSQDIKQIGWLTEQLPSGGTAPTLALLTEKELLFYCSLPQSREALSRPTRTAPLIATSSAHRLVHSGPSKGSVPYDAELSFALRTGTRHGVDTHLFSVESPQELAAWTRQLVDGCHRAAEGIQEVSTACTWNGRPCSLSVHIDKGFTLWAAEPGAARAMLLRQPFEKLQMSSDDGTSLLFLDFGGAEGEIQLDLHSCPKTMVFIIHSFLSAKVTRLGLLA

binding [3]: binds | binding [1]: binds
B5: SNTA1 (human) (protein, UniProt Q13424 1-505)
chain: MASGRRAPRTGLLELRAGAGSGAGGERWQRVLLSLAEDVLTVSPADGDPGPEPGAPREQEPAQLNGAAEPGAGPPQLPEALLLQRRRVTVRKADAGGLGISIKGGRENKMPILISKIFKGLAADQTEALFVGDAILSVNGEDLSSATHDEAVQVLKKTGKEVVLEVKYMKDVSPYFKNSTGGTSVGWDSPPASPLQRQPSSPGPTPRNFSEAKHMSLKMAYVSKRCTPNDPEPRYLEICSADGQDTLFLRAKDEASARSWATAIQAQVNTLTPRVKDELQALLAATSTAGSQDIKQIGWLTEQLPSGGTAPTLALLTEKELLLYLSLPETREALSRPARTAPLIATRLVHSGPSKGSVPYDAELSFALRTGTRHGVDTHLFSVESPQELAAWTRQLVDGCHRAAEGVQEVSTACTWNGRPCSLSVHIDKGFTLWAAEPGAARAVLLRQPFEKLQMSSDDGASLLFLDFGGAEGEIQLDLHSCPKTIVFIIHSFLSAKVTRLGLLA
